The text below walks through data of publication PMC7285321, “Evaluation of Indolocarbazoles from Streptomyces sanyensis as a Novel Source of Therapeutic Agents against the Brain-Eating Amoeba Naegleria fowleri” (Microorganisms, 2020).

Usually IC90 stands for the concentration at which the effect reaches the 90% level.

In this assay the test system is Naegleria fowleri ATCC 30808 trophozoites. Kind of assay: In vitro amoebicidal activity, alamarBlue colorimetric assay, trophozoites. The following applies: ATCC30808, read-out: IC90 N. fowleri ATCC 30808. The procedure:
Amoebae were grown at 37 °C in axenic conditions in 2% (w/v) bactocasitone medium (Thermo Fisher Scientific, Madrid, Spain) supplemented with 10% (v/v) foetal bovine serum (FBS), […] of penicillin G and 0,5 mg/mL of streptomycin sulphate (Sigma-Aldrich, Madrid, Spain). As required by the Spanish Government biosafety guidelines for this pathogen, amoebic strains were cultured in a biological security facility level 3 at the Instituto Universitario de Enfermedades Tropicales y Salud Pública de Canarias, Universidad de La Laguna.
The in vitro activity of the four ICZs included in this study was evaluated against trophozoites of two Naegleria fowleri type strains using a colorimetric assay. Amoebae (2 × 10^5 cells/mL) were placed in a sterile 96-well microtiter plate. Next, 50 μL of a serial dilution of each of the ICZs (in N. fowleri culture medium) was added to the plate. […] After that, activity plates were evaluated with an EnSpire® Multimode Plate Reader (Perkin Elmer, Madrid, Spain) using a wavelength of 570 nm and a reference wavelength of 630 nm.
The IC90 values of the compounds were calculated using a GraphPad calculator (GraphPad Software, San Diego, CA, USA) based on the calculated IC50 and the Hill Slope (H). All experiments were performed in triplicate, and the mean values were also calculated.
For orientation: Resazurin is reduced to fluorescent resorufin, in cell work by metabolically active cells.

`CN[C@@H]1C[C@H]2O[C@@](C)([C@@H]1OC)n1c3ccccc3c3c4c(c5c6ccccc6n2c5c31)C(=O)NC4` [STS (1), staurosporine]: the IC90 was determined as 580 nM.
